Values of other authors as cited in patent US8765150B2, “Riluzole aqueous suspensions” (Italfarmaco SpA, priority 2009, dated 2014).

How the values were obtained:
[1] = pH 1.2
[2] = under acidic conditions (pH 1.2)

SMILES: Nc1nc2ccc(OC(F)(F)F)cc2s1 [Riluzole, 6-(trifluoromethoxy)benzothiazol-2-amine]
- solubility [1]: about 12 mg/mL
- chemical stability [2]: decreases dramatically
